Values quoted from earlier work, collected in patent US8598221B2 (priority 2009, dated 2013).
At least one compound was matched to its structure with a doubt left.

Test system: cramps induced by acetic acid in the mouse
Conditions: celecoxib; literature value; cited from earlier work

Compound: Cc1ccc(-c2cc(C(F)(F)F)nn2-c2ccc(S(N)(=O)=O)cc2)cc1 [Celecoxib, celecoxib]
- ED50 in the same model, Lu et al. (2005): 94 mg/kg
